Among the data in publication PMC7819943, “Rice protein-binding microarrays: a tool to detect cis-acting elements near promoter regions in rice” are binding signal values, retold here.

Some of the results follow.

The target in the experiment is T1, OsSMF1 (Oryza sativa, UniProt Q6ZLB0 1-436).
T1 sequence: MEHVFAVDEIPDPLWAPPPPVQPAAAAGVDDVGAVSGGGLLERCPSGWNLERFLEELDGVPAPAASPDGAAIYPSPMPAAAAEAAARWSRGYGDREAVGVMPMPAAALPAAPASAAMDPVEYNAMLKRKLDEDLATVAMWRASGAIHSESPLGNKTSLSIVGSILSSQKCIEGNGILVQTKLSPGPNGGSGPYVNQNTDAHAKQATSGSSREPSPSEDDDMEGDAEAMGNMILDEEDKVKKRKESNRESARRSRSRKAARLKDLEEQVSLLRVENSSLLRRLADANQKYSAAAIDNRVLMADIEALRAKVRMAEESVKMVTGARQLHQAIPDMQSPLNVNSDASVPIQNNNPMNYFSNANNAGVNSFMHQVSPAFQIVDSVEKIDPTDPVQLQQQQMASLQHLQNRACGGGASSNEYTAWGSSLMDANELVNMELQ
Nature of the experiment: protein-binding microarray (RPBM); PBS, 2% BSA, 51.3 ng/ul salmon testes DNA, 50 uM zinc acetate, 200 nM TF, 25 C, 1 h; high values mean tight binding. The note with it: protein: recombinant; tags: N-terminal polyhistidine and DsRed monomer fusion (pET32a); chain copies: 2; label: CyDye5-dUTP incorporated in the synthesized complementary strand; 3' TTTTT single-stranded linker to array surface; dsDNA, one strand shown. Summed up:
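Ni–NTA purification followed expression in E. coli BL21-CodonPlus of transcription factors fused N-terminally to a polyhistidine tag and DsRed. At 200 nM in PBS with 2% BSA, salmon testes DNA and 50 µM zinc acetate, the protein was incubated for 1 h at 25 °C with a custom Agilent array that had been primer-extended with Cy5-dUTP and blocked with 2% BSA. After washing, the array was read on an Axon 4000B scanner. The binding signal is per-feature fluorescence intensity in arbitrary units.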
As to “GCTTGAGAGGAAGGGGATAAGCTAACCGGCATATATGTCTCGGAGTCACCTAGTGCAG”, the binding signal is 3340 fluorescence intensity (a.u.). To “TACTATAGACTAGCAAATGCCAAATGACAAATTGCCAAGTCGGAGTCACCTAGTGCAG” belongs 15800 fluorescence intensity (a.u.); to “AATTCTTCGGGTCCTGGTGTTGATGATTCACATCTTTGGCCGGAGTCACCTAGTGCAG”, 4920 fluorescence intensity (a.u.); to “ATGGTGGAGAAGGTGACGATGACACGAGGTGATCTGGATCCGGAGTCACCTAGTGCAG”, 3680 fluorescence intensity (a.u.). To “GGAGAAATCAGAAATCGGCGTCTCCACCTCATCGCCCATCCGGAGTCACCTAGTGCAG” belongs 4890 fluorescence intensity (a.u.); to “GTTTGAGATGTGTAATAAAGGATCGATCTTGTTGACGATCCGGAGTCACCTAGTGCAG”, 3530 fluorescence intensity (a.u.).

For the sequence “AGAACATGCTGCTTGTTGTGACTGCACCGACGTCTTTCGTCGGAGTCACCTAGTGCAG”, the binding signal is 3140 fluorescence intensity (a.u.).

Consider “GCTGTCCCTATATACACAACATTTGACCAAGATGATGACGCGGAGTCACCTAGTGCAG”, for which the binding signal was 3480 fluorescence intensity (a.u.). To “ACTAAGACCGAGCTCATTGGAGGAGCTGATGTGTACATGCCGGAGTCACCTAGTGCAG” belongs 5620 fluorescence intensity (a.u.); to “GAACGGCGCTCGCCGCCATCACCGACGGTAACGCGCATGCCGGAGTCACCTAGTGCAG”, 27900 fluorescence intensity (a.u.); to “CTTGACGGGCTAGGGCCATAACTGAGCATTGCCACGTCAGCGGAGTCACCTAGTGCAG”, 14600 fluorescence intensity (a.u.).

For the sequence “AGGCAACGACACGGCATGCGCACCTGTGTCCTTGTGGTTGCGGAGTCACCTAGTGCAG”, the binding signal is 4640 fluorescence intensity (a.u.). Turning to “AACTTCATATGTGTAATAAGAGATTTGTTGACAGCCTTGTCGGAGTCACCTAGTGCAG”, the binding signal is 3150 fluorescence intensity (a.u.). To “CTACTTCCAGTTCCCAACCATGTTTATGGCCAAACATCACCGGAGTCACCTAGTGCAG” belongs 33800 fluorescence intensity (a.u.); to “GCACATGTGTCGCCGTCGTGTCGGCCCCATTCTCCGGGCGCGGAGTCACCTAGTGCAG”, 3690 fluorescence intensity (a.u.). Regarding “GGCCTCGCCCATGCCCGGGCCCACACGTCAGCGGGACACCCGGAGTCACCTAGTGCAG”, the binding signal was 12500 fluorescence intensity (a.u.).

As for “AGTGCCTATGTGGCGTTGACGTGGCGCTTACGTGGCAATTCGGAGTCACCTAGTGCAG”, the binding signal was 27500 fluorescence intensity (a.u.). Turning to “ATTATATTGATCAATGACTCTGCTACTACTGCTCCCATATCGGAGTCACCTAGTGCAG”, the binding signal is 3720 fluorescence intensity (a.u.).

“CACGCACGTACATCGCGCGCGCCACGCCACGCCACGCCGCCGGAGTCACCTAGTGCAG”: the binding signal was 8370 fluorescence intensity (a.u.). Consider “TATGTGGACCATAGTGGCCTTCGGCAATATGGATTAGTAGCGGAGTCACCTAGTGCAG”, for which the binding signal is 47700 fluorescence intensity (a.u.). For “CCAGTGTTGAAATTAGTTGTTATTGTTCGTCACATCATCCCGGAGTCACCTAGTGCAG”, the binding signal was 7320 fluorescence intensity (a.u.). Next, “GGTGCGTGCGTACACATCCGCGCCGTGCATGCCAAGCCGGCGGAGTCACCTAGTGCAG”: 4160 fluorescence intensity (a.u.); “CCAAATTAACCCACGTTCACCTGACGCTAGCACGTTTCAGCGGAGTCACCTAGTGCAG”: 7380 fluorescence intensity (a.u.).

As to “ACTATCATCATCTTCTACGTGGTAAGAATCGCATGATATACGGAGTCACCTAGTGCAG”, the binding signal is 3750 fluorescence intensity (a.u.).

Turning to “AGTAGTAGTTTAAAGGAGTATATCACGTCGCTGGTCCCCGCGGAGTCACCTAGTGCAG”, the binding signal is 3160 fluorescence intensity (a.u.).

Regarding “GACAACGACGAGCTGCTGCGCCCACTCGCCGTACATGGCGCGGAGTCACCTAGTGCAG”, the binding signal was 3140 fluorescence intensity (a.u.). Take “CGACTGGTGACGACGACCGGAGGGCCTCCTCCTCCCTTCCCGGAGTCACCTAGTGCAG”: the binding signal is 3360 fluorescence intensity (a.u.).

With “TTGGTAAACCTATAGTCATGTCTATGTGTGCATCTGTTGCCGGAGTCACCTAGTGCAG”, the binding signal was 4110 fluorescence intensity (a.u.).

As to “AATAGTTAAATTAGGTTTGCTGTCGATGTCGCATACTCCGCGGAGTCACCTAGTGCAG”, the binding signal was 20800 fluorescence intensity (a.u.). Next, “CAAAACAGCCGCGTTTTGGCTCACTAGTCACTTGTTTGACCGGAGTCACCTAGTGCAG”: 3470 fluorescence intensity (a.u.). Next, “CAGAAATTCCATATGCCATATGTTAGCTTATGTCCAATTGCGGAGTCACCTAGTGCAG”: 3150 fluorescence intensity (a.u.). Turning to “AATCTTTGATGATACACTATTATGTCTGGTACTGAGATTGCGGAGTCACCTAGTGCAG”, the binding signal is 3390 fluorescence intensity (a.u.). On to “CCAAGCCGTCGTCGCGTTCACACACGCGCACCCTCTCTGCCGGAGTCACCTAGTGCAG”, for which the binding signal is 3600 fluorescence intensity (a.u.). As to “TCATTCCATACGCGACCGCAACAGTCATTTTGAGTTAGAACGGAGTCACCTAGTGCAG”, the binding signal is 3960 fluorescence intensity (a.u.).

For “TTTTAAGGGGCAAATCTTACCAACTTTTACTAGCGTGTCACGGAGTCACCTAGTGCAG”, the binding signal is 3680 fluorescence intensity (a.u.). To “GTACATTCTCATGCACCGGTGACCGATGCACTGACTGGTCCGGAGTCACCTAGTGCAG” belongs 3140 fluorescence intensity (a.u.); to “TTGGCCTCTAACCTCACTTCATAGTCATCAGTCATCACTTCGGAGTCACCTAGTGCAG”, 5860 fluorescence intensity (a.u.). Next, “CTACGCCGCGTACGACGTCGACGCGTGGAACGGCACCGACCGGAGTCACCTAGTGCAG”: 3430 fluorescence intensity (a.u.); “TTCACAGCAGAAACCCATAATTTTCCATGTGCTGTGGCACCGGAGTCACCTAGTGCAG”: 3450 fluorescence intensity (a.u.).

For the sequence “ACTCTATTTAGATATTTTCCCACGCATCCGTCTCCTCCTCCGGAGTCACCTAGTGCAG”, the binding signal is 3470 fluorescence intensity (a.u.). To “TTGGCTGAGCTACTCCATATCTCCCACGCGAGTCACAAGACGGAGTCACCTAGTGCAG” belongs 37200 fluorescence intensity (a.u.); to “CCAGTTCATCCACACGTGTGTAGTCCGTTTGTTGGTTGGTCGGAGTCACCTAGTGCAG”, 5490 fluorescence intensity (a.u.).
